This is one part of the list. Further columns of the screen follow, without active or inactive calls. Compounds called inactive in the main read-out are mostly missing here. The note in brackets gives the kind of curve behind each potency; many fits are weak.
Experiment: qHTS Assay to Find Inhibitors of Chronic Active B-Cell Receptor Signaling
Details: ABC-DLBCL IkBa-CBG/CBR reporter, luminescence ratio (green luciferase fused to IkBa over red control in TMD8 lymphoma cells), 4 h
Procedure, shortened: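 Compounds up to 46 uM were incubated four hours with TMD8 cells whose green CBG68 luciferase is fused to IkappaBalpha; red CBR luminescence normalised the signal, and concentration-effect curves were fitted to fusion, red and ratio data.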

[1] = measured here: CBR red luminescence, cell number

Q: Which AC50 [1] does the source give for `COc1ccc(-c2nnc(SCC(=O)NCc3cccs3)n2CC(C)C)cc1` here?
A: Its AC50 is 3.66 µM [falling, partial curve, poor fit].

Q: With `Cc1ccc(S(=O)(=O)N(CCc2ccccc2)CC(=O)Nc2cc(C)ccc2C)cc1` as the compound, how does the AC50 [1] read?
A: Its AC50 is 0.562 µM [rising, full curve, poor fit].

Q: For `Cc1cc(F)ccc1NS(=O)(=O)c1c(C)nc2scc(C)n2c1=O`, which AC50 [1] is on record?
A: Its AC50 is 6.31 µM [rising, single point].

Q: Which AC50 [1] does the source give for `CC(C)OCCCN(CC(O)c1ccccc1)CC(O)c1ccccc1` (stereo unspecified) here?
A: The AC50 was 4.61 µM [rising, full curve, poor fit].

Q: With `C=CCn1c(COc2ccc(Cl)cc2)nnc1SCc1ccc(C#N)cc1` as the compound, how does the AC50 [1] read?
A: Its AC50 is 14.1 µM [falling, single point].

Q: Which AC50 [1] does the source give for `COc1c2ccoc2c(OC(C)=O)c2oc(C)cc(=O)c12` here?
A: The AC50 was 5.01 µM [rising, full curve, poor fit].

Q: Which AC50 [1] does the source give for `COc1ccc(-c2cc(-c3ccccc3)c(C#N)c(S(C)(=O)=O)n2)cc1` here?
A: The AC50 was 29.1 µM [rising, single point].

Q: With `Cc1ccc(CN2CCN(CC(=O)NCc3ccc(Cl)cc3)C2=O)cc1` as the compound, how does the AC50 [1] read?
A: Its AC50 is 11.6 µM [falling, single point].

Q: Which AC50 (measured here: IkBa-CBG green luminescence) does the source give for `CCOC(=O)c1c(N)sc(C(C)=O)c1C` here?
A: The AC50 was 17.8 µM [falling, partial curve, poor fit].

Q: Which AC50 [1] does the source give for `Cc1nc(NC(=O)c2ccccc2)sc1-c1csc(Nc2cccc(Cl)c2)n1` here?
A: Its AC50 is 0.398 µM [rising, partial curve, poor fit].

Q: For `COc1ccc2c(c1OC)C(=O)N(c1cccc(C(F)(F)F)c1)C2`, which AC50 [1] is on record?
A: The AC50 was 2.06 µM [rising, full curve, poor fit].

Q: For `O=C(C1CCCO1)N1CCC(O)(c2ccccc2)CC1` (stereo unspecified), which AC50 [1] is on record?
A: The AC50 was 0.708 µM [rising, partial curve].

Q: For `CC(=O)Oc1ccc(OC(C)=O)c2c1CC(C)=C(C)C2`, which AC50 [1] is on record?
A: The AC50 was 10 µM [falling, partial curve].

Q: For `COc1ccc(Cl)cc1N=Cc1c(O)c2ccccc2oc1=O`, which AC50 [1] is on record?
A: The AC50 was 2.51 µM [falling, full curve, poor fit].

Q: With `O=C(O)c1cc(N/N=C/C=C/c2ccccc2[N+](=O)[O-])ccc1Cl` as the compound, how does the AC50 [1] read?
A: Its AC50 is 15.8 µM [falling, partial curve].

Q: Which AC50 [1] does the source give for `Fc1ccccc1Nc1nc2ccccc2n2nnnc12` here?
A: The AC50 was 0.13 µM [falling, full curve].

Q: Which AC50 [1] does the source give for `COC(=O)c1c(F)c(F)c(N2CCOCC2)c(F)c1F` here?
A: Its AC50 is 0.116 µM [rising, full curve, poor fit].

Q: Which AC50 [1] does the source give for `CCOc1cc(C(c2c(C)[nH][nH]c2=O)c2c(C)[nH][nH]c2=O)ccc1OCc1ccc([N+](=O)[O-])cc1` here?
A: The AC50 was 16.4 µM [falling, single point].

Q: Which AC50 [1] does the source give for `COC(=O)c1cc2oc(C)cc2n1CC(=O)Nc1ccc(OC)c(OC)c1OC` here?
A: The AC50 was 0.112 µM [rising, full curve, poor fit].

Q: For `COc1ccc(-c2nn(C)c(=O)c3ccccc23)cc1CNC(=O)c1ccco1`, which AC50 [1] is on record?
A: Its AC50 is 32.6 µM [rising, single point].

Q: With `O=C(NCCc1ccccc1)c1n[nH]c(=O)c2ccccc12` as the compound, how does the AC50 [1] read?
A: The AC50 was 20 µM [falling, partial curve, poor fit].

Q: With `CSc1nnc(-c2ccco2)n1-c1ccccc1` as the compound, how does the AC50 [1] read?
A: The AC50 was 35.5 µM [rising, single point].

Q: For `CC(=O)c1ccccc1NCC(=O)Nc1ccc(C)cc1`, which AC50 [1] is on record?
A: The AC50 was 20 µM [falling, partial curve, poor fit].

Q: Which AC50 [1] does the source give for `C[C@H](CO)N1C[C@H](C)[C@@H](CN(C)S(=O)(=O)c2ccccc2)Oc2c(NC(=O)Nc3ccc4c(c3)OCO4)cccc2C1=O` here?
A: The AC50 was 32.6 µM [falling, single point].

Q: With `CCCCn1c(N)c(N(CCOC)C(=O)COC(=O)COc2cc(C)c(Cl)cc2C(C)C)c(=O)[nH]c1=O` as the compound, how does the AC50 [1] read?
A: Its AC50 is 18.4 µM [falling, single point].

Q: Which AC50 [1] does the source give for `CCOC(=O)C1CCN(c2cc(C)nc3cc(-c4cccc(F)c4)nn23)CC1` here?
A: The AC50 was 11.6 µM [rising, partial curve, poor fit].

Q: With `COc1ccc(-c2cn(-c3ccc(C)c(C)c3)c(=S)[nH]2)cc1OC` as the compound, how does the AC50 [1] read?
A: The AC50 was 3.55 µM [falling, full curve, poor fit].

Q: With `O=C(Nn1cnc2ccccc2c1=O)c1ccc(F)cc1Cl` as the compound, how does the AC50 [1] read?
A: The AC50 was 1.58 µM [rising, partial curve].

Q: With `Cc1ccc2oc(=O)c(/C=C(\O)c3ccco3)nc2c1` as the compound, how does the AC50 [1] read?
A: Its AC50 is 7.08 µM [falling, single point].

Q: Which AC50 [1] does the source give for `O=C(Nc1ccccc1F)c1cc2c(s1)-c1ccccc1S(=O)(=O)C2` here?
A: The AC50 was 2.82 µM [falling, full curve].

Q: For `CC(=O)c1nc2ccccc2n1S(=O)(=O)c1ccc(C)cc1`, which AC50 [1] is on record?
A: Its AC50 is 7.08 µM [falling, partial curve, poor fit].

Q: Which AC50 [1] does the source give for `CCOC(=O)c1nc(C)n(-c2ccc(Cl)cc2)n1` here?
A: Its AC50 is 29.1 µM [rising, single point].

Q: For `Cc1nn(Cc2ccc(Cl)cc2)c(C)c1NC(=O)c1noc2c1CCCCC2`, which AC50 [1] is on record?
A: Its AC50 is 18.4 µM [falling, single point].

Q: Which AC50 [1] does the source give for `Cc1cccc(NC(=O)COc2coc(CN3CCc4ccccc4C3)cc2=O)c1` here?
A: Its AC50 is 29.1 µM [falling, single point].

Q: For `CCn1c2ccccc2c2cc(CN3CCN(Cc4cc(OC)ccc4O)CC3)ccc21`, which AC50 [1] is on record?
A: Its AC50 is 17.8 µM [falling, single point].

Q: With `O=C(Nc1ccc(N2CCOCC2)cc1)c1cccc(S(=O)(=O)N2CCCC2)c1` as the compound, how does the AC50 [1] read?
A: The AC50 was 5.17 µM [falling, full curve, poor fit].

Q: For `O=c1[nH][nH]c(-c2ccccc2O)c1C(C[N+](=O)[O-])c1ccc(Br)cc1` (stereo unspecified), which AC50 [1] is on record?
A: Its AC50 is 7.31 µM [falling, partial curve].

Q: With `O=C(NC1CCCCC1)C1CC(O)CN1C(=O)OCc1ccccc1` (stereo unspecified) as the compound, how does the AC50 [1] read?
A: Its AC50 is 32.6 µM [rising, single point].

Q: For `CCOc1ccc(-n2c(N)c(-c3nc4ccccc4n3C)c3nc4ccccc4nc32)cc1`, which AC50 [1] is on record?
A: The AC50 was 32.6 µM [falling, single point].

Q: For `Cc1sc(NC(=O)Cn2[nH]c(=O)c3ccccc3c2=O)nc1-c1ccccc1`, which AC50 [1] is on record?
A: The AC50 was 6.51 µM [rising, single point].

Q: Which AC50 [1] does the source give for `C=CCOC(=O)/C(=C/c1cccnc1)NC(=O)c1ccccc1` here?
A: The AC50 was 35.5 µM [rising, single point].

— PubChem BioAssay AID493014 (National Center for Advancing Translational Sciences (NCATS), 2011)
